Results taken from PMC5725448.
These are yes or no findings as the source states them, for the method shown. In cells and extracts the contact can be indirect. Some binding calls cover weakened binding; strength is not graded here. Tags and fused reporters may be left off the sequences shown. One block for each substance: values may come before it.

Protein sequences, listed by entry. Tags and fused reporters are not part of them. Residues count along the entry.
UniProt P18754: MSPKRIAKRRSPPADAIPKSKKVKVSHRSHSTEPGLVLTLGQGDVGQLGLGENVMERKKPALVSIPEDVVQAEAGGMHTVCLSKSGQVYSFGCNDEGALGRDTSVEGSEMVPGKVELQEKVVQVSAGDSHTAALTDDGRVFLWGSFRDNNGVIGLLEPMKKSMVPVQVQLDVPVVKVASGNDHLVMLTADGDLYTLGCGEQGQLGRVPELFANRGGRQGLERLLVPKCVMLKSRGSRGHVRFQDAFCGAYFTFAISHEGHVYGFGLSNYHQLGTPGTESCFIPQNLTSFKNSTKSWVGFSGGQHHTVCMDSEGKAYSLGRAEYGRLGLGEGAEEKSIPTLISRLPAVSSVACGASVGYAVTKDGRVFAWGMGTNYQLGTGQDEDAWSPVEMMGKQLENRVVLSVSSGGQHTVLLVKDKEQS
UniProt P16234, residues 24-1089: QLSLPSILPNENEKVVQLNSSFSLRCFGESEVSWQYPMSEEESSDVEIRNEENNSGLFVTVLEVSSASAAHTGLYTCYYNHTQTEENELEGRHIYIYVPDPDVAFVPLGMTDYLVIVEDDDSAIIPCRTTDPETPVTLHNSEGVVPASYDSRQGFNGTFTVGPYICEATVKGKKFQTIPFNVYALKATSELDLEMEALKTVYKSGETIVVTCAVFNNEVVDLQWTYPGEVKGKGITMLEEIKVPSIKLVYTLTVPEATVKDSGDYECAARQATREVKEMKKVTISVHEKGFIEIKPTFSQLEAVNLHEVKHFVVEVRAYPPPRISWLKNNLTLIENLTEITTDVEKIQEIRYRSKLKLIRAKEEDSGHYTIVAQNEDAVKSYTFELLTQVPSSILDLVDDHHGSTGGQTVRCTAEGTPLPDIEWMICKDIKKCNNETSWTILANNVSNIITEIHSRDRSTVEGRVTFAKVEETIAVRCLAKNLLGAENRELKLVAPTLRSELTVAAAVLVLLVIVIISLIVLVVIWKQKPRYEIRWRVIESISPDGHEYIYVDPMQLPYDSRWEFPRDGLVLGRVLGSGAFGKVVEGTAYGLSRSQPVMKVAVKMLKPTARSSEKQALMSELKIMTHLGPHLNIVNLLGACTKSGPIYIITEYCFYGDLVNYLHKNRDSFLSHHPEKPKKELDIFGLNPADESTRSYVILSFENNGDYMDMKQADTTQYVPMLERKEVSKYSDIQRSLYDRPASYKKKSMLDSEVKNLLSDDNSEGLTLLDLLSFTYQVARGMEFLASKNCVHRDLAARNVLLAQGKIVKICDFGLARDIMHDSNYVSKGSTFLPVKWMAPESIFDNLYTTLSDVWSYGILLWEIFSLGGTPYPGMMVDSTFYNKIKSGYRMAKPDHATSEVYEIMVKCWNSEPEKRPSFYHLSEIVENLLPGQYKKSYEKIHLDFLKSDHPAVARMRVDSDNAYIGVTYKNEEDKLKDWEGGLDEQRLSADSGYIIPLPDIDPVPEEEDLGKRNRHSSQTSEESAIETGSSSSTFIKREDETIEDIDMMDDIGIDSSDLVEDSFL
UniProt Q14974: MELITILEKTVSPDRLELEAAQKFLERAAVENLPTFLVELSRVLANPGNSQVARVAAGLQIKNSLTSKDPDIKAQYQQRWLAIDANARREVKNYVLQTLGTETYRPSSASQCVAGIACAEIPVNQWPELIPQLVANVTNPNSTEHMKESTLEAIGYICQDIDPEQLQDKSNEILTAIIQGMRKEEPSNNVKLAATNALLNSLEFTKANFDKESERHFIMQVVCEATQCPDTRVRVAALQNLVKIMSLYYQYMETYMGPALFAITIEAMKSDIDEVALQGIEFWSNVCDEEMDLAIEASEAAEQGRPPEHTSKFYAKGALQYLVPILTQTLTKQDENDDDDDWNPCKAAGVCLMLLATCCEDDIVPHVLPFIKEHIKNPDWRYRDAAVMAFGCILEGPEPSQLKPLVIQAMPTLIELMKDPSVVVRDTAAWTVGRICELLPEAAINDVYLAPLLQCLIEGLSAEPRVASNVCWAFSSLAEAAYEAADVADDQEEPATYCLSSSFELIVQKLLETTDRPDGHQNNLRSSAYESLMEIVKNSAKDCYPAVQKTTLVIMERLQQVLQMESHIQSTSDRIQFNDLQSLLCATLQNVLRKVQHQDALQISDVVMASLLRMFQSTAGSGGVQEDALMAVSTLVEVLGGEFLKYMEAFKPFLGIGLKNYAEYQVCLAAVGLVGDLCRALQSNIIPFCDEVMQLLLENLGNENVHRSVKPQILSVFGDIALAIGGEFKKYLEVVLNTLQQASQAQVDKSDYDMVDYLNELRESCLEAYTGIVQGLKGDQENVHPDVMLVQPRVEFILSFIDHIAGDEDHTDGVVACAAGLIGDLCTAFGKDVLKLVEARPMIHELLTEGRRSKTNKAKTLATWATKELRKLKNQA

Experiments:
[1] = target: T1, GST-RanBP6 fusion protein (human) (UniProt O60518); assay: pull-down; GST-RanBP6 beads incubated with lysates of Pten knockout (Pten Δ/Δ) MEFs; immunoblot for endogenous EGFR; only the target purified
T1 sequence: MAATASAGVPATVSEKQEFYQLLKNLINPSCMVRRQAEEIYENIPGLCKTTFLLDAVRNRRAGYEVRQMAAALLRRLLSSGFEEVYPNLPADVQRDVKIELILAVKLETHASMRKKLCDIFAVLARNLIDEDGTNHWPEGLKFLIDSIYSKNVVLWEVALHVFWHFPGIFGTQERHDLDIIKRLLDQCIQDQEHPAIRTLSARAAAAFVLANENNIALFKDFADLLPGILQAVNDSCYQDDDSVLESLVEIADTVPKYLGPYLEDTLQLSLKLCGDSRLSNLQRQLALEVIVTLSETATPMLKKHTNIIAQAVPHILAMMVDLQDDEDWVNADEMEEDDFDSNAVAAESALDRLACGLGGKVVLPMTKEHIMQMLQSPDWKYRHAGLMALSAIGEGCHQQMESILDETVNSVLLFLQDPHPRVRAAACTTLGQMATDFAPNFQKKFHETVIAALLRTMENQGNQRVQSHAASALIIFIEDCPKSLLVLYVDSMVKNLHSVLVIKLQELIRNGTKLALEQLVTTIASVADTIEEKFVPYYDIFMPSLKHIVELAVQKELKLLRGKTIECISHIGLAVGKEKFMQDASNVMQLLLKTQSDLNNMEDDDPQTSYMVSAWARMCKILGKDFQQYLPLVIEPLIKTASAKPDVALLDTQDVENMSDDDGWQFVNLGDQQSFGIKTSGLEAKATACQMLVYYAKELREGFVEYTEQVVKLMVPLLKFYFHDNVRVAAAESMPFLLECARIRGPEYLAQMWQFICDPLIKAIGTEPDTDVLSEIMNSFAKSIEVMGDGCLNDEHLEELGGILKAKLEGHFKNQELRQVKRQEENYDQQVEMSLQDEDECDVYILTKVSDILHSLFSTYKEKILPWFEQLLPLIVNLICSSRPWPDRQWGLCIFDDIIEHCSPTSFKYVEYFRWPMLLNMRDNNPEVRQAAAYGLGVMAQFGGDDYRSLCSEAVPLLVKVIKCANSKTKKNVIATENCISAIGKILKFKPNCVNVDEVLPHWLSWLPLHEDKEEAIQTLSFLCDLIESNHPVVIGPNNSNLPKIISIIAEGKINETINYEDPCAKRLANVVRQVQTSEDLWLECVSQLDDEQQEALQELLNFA

[2] = target: T1, GST-RanBP6 fusion protein (human); assay: pull-down; GST-RanBP6 beads incubated with lysates of Pten lox/lox MEFs; immunoblot for endogenous EGFR; only the target purified
[3] = target: T2, V5 epitope tagged RanBP6-V5 (Ran-binding protein 6) (human) (UniProt O60518); assay: co-IP; immunoprecipitation with a V5 antibody from LN18 cells transduced with the Dox-inducible RanBP6-V5 vector (- and + Dox); blot with PDGFRA and V5 antibodies
T2 sequence: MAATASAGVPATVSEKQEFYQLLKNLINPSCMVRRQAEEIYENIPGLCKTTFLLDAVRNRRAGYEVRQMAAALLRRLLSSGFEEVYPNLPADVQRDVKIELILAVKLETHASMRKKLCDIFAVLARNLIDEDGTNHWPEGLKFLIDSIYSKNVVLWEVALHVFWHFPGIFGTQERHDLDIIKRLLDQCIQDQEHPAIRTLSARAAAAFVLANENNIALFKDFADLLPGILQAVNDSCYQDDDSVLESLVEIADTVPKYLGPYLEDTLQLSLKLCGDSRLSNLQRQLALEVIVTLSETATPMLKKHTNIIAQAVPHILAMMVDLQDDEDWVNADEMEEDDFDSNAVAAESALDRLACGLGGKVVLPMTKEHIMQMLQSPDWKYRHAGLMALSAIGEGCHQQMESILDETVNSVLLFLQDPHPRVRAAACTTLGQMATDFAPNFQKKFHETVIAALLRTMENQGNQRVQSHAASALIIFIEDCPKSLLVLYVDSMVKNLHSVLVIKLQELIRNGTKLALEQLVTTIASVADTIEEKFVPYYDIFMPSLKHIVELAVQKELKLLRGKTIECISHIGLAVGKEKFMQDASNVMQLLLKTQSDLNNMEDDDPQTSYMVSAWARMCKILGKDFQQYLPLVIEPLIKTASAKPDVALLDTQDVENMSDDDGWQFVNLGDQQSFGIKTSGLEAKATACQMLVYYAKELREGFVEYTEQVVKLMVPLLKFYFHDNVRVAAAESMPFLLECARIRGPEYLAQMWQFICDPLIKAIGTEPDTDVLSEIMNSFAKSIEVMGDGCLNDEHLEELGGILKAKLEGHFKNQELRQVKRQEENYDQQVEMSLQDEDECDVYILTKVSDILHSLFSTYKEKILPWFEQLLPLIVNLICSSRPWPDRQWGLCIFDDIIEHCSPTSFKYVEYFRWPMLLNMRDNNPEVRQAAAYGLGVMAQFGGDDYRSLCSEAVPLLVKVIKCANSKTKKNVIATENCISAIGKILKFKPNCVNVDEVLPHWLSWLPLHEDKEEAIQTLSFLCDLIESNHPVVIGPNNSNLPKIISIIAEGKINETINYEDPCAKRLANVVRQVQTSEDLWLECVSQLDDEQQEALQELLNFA

[4] = target: T1, GST-RanBP6 fusion protein (human); assay: pull-down; GST-RanBP6 on beads incubated with the nuclear fraction of HEK-293T cells; fractionated lysates normalized to cell number (cytoplasm:nuclear = 50:1); immunoblot; only the target purified
[5] = target: T1, GST-RanBP6 fusion protein (human); assay: pull-down; about 25 μg GST-RanBP6 beads incubated with 500 μg HEK-293T whole-cell lysate for 2-4 h in the cold; cells serum starved 12 h and stimulated with EGF (100 ng/ml) or grown in full media; for EGFR also pretreatment with the AKT inhibitor MK-2206 (EGF reduced the association, MK-2206 rescued it); immunoblot; only the target purified
[6] = target: T3, RanBP6-V5 (doxycycline-inducible V5-tagged RanBP6) (human) (UniProt O60518); assay: co-IP; IP with V5 antibody from lysates of A431 cells with Dox-inducible RanBP6-V5 (JS lysis buffer), immunoblot for EGFR; also cells serum starved and induced with EGF (100 ng/ml) for 5 min, which reduced the interaction
T3 sequence: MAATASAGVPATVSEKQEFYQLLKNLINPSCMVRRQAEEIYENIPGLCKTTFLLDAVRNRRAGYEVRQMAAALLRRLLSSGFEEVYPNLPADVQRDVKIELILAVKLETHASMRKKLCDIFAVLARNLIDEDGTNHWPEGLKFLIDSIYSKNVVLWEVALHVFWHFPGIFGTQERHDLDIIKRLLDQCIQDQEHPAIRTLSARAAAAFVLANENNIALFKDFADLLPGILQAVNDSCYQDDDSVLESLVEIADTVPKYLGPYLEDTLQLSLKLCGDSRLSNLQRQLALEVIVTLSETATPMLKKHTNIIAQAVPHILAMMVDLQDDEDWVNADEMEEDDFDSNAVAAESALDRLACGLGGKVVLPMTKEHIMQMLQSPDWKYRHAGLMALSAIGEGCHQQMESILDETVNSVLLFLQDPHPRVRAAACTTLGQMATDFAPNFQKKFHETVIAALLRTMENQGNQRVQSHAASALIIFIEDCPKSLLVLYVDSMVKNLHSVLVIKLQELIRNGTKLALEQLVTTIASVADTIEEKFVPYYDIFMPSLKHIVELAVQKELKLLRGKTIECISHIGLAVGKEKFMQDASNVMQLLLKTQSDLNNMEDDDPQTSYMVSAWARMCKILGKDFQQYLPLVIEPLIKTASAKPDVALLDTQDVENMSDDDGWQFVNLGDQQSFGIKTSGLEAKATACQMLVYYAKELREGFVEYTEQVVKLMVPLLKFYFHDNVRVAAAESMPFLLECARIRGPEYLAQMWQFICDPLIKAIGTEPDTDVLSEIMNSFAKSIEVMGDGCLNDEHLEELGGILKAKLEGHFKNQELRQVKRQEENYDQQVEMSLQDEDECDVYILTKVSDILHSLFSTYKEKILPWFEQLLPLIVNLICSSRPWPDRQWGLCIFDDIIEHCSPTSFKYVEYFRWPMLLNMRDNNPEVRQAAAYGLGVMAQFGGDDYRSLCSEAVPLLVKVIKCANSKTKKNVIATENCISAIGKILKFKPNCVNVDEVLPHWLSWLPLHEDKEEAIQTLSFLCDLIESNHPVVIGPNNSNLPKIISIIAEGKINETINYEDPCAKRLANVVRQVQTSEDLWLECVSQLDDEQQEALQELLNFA

Substance: EGFR, endogenous in mouse embryonic fibroblasts (from UniProt Q01279 25-1210) (receptor)
binding [1]: no binding (condition: lysates of Pten knockout MEFs)
binding [2]: binds

Substance: RCC1 (from UniProt P18754 1-421)
binding [4]: binds

Substance: epidermal growth factor receptor (EGFR) (from UniProt P00533 25-1210)
binding [5]: binds
binding [6]: binds

Now from value to substance:

binding [3]: no binding
Substance: Platelet-derived Growth Factor Receptor alpha (PDGFRA) (from UniProt P16234 24-1089)

binding [5]: binds
Substance: importin subunit β-1 (from UniProt Q14974 1-876)
